Counter-ions that a name gives are not always drawn.
Test: dissolution of tank-derived sludge by NaOCl and acid
Conditions: for After NaOCl (Δg): 6% NaOCl

Row | SMILES | dissolution of sludge material (in words) | After NaOCl (Δg) (incubation 10 min) [g] | After NaOCl (Δg) (incubation 30 min) [g] | After NaOCl (Δg) (incubation 60 min) [g]
1 | Cl [HCl] | not as effective | – | – | –
2 | OCl [NaOCl, sodium hypochlorite] | very effective in dissolving sludge material | 0.331 | 0.174 | 0.120

From US20110308790A1, “IN SITU METHANOGENESIS MODELING AND RISK ANALYSIS” (CONOCOPHILLIPS COMPANY, priority 2010, published 2011)
